Assay results published in PubChem BioAssay AID493014 (National Center for Advancing Translational Sciences (NCATS), 2011).
The campaign covered roughly 340,000 compounds. About 170 (0.05%) were called active. Inconclusive results, whose numbers are uncertain, are shown with a selection of clear calls. The call rests on the fitted dose curve; in most records, active means well fitted inhibition curve with a large enough effect in the signal ratio, with a control signal flat (not every such curve was filed as active); inconclusive means small, poorly fitted or top-dose-only effect, or effect the other way, or a change in a side signal; inactive means flat fitted curve, though single readings scatter; the % refers to the signal ratio. A potency beside an inconclusive call is a rough fit, not a confirmed value.

experiment: qHTS Assay to Find Inhibitors of Chronic Active B-Cell Receptor Signaling; conditions: ABC-DLBCL IkBa-CBG/CBR reporter, luminescence ratio (green luciferase fused to IkBa over red control in TMD8 lymphoma cells), 4 h; activity change, negative = inhibition: at 46.1 µM (top of the series);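 on activity change, negative = inhibition: plate controls were basal doxycycline-induced cells for no effect and cells given 10 µM MG132 for full effect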
Summary of the method: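 TMD8 human ABC-DLBCL cells with doxycycline-inducible IκBα–green luciferase fusion and unfused red luciferase, in 0.5% FBS medium; compounds up to 46 uM, 4 h at 37C. Green/red luminescence ratio, filter-overlap corrected, fitted to concentration-response curves.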
Potency means the concentration at half of the fitted maximal effect.

Structure (SMILES)	activity change, negative = inhibition	Potency
CCOC(=O)C1CCCN(C(=O)COc2ccccc2F)C1 (configuration not stated)	inactive: 2.45%	
COc1cc(/C=N/NC(=O)c2cc(O)cc(O)c2)ccc1OC(=O)c1ccccc1		inconclusive: 25.1 µM [falling, single point]
Cc1nn(CC(=O)NCCCc2ccccc2)c(=O)c2cccn12	inconclusive: 8.5%	
COc1ccc(-c2cc3nnc(-c4ccccc4)nc3s2)cc1		inconclusive: 0.0366 µM [falling, full curve]
CN(C(=O)c1cc2nc(-c3ccco3)cc(C(F)(F)F)n2n1)C1CCCCC1	inconclusive: -0.811%	
Cc1ccccc1OCCC(=O)Nc1ccc(S(=O)(=O)N(C)C2CCN(C)CC2)cc1	inconclusive: -6.59%	
CCCCC(=O)Nc1c(-c2ccc(OC)c(OC)c2)c(=O)c2ccccc2n1C	inconclusive: -0.334%	
CN1CCN(c2nc(-c3cccnc3)nc3ccccc23)CC1	inactive: -7.17%	
CCN1CC(CN(C)Cc2nc(-c3ccco3)oc2C)CC1=O (configuration not stated)	inconclusive: 17.6%	
Cc1nc(-c2ccccc2)cn(O)c1=O	inactive: -0.902%	
O=C1N[C@H](Cc2ccccc2)COC(=O)[C@H](Cc2ccc(F)cc2)C/C=C\C[C@@H]1CC(=O)N(CCO)Cc1ccccc1	inconclusive: -5.61%	
Cc1onc(-c2ccccc2Cl)c1C(=O)N1CCN(c2cccc(Cl)c2)CC1		inconclusive: 1.46 µM [falling, single point]
CCn1c(=O)cc(SCC(=O)N2CCN(c3ccccc3F)CC2)c2ccccc21	inconclusive: -0.189%	
COc1cccc(OC)c1C(=O)Nc1nnc(-c2cccs2)s1	inactive: 10.7%	
CCc1ccccc1NC(=O)CN(C)C(=O)COC(=O)c1ccco1	inactive: 1.26%	
COc1cccc(NC(=O)CN(C)C(=O)c2cc(C3CC3)nn2-c2ccccc2)c1	inconclusive: -12.6%	
Cc1onc(-c2ccccc2)c1NC(=O)N(Cc1ccccc1)C(C)C	inactive: 8.49%	
NN/C(=C\[N+](=O)[O-])Nc1ccccc1		inconclusive: 12.6 µM [falling, partial curve]
COc1ccc(F)cc1S(=O)(=O)N1CCN(c2ccccn2)CC1	inconclusive: 5.33%	
COc1cccc(C(=O)N2CCN(C3CCN(Cc4ccccc4)CC3)CC2)c1OC	inactive: 0.326%	
N#CCCn1ccc(NC(=O)c2ccc(Cl)cc2)n1	inconclusive: 10.9%	

Structure (SMILES)	activity change, negative = inhibition	Potency
O=C1OC(C(=O)Nc2nccs2)Cc2ccccc21 (configuration not stated)		inconclusive: 7.31 µM [rising, partial curve, poor fit]
Cc1ccc(SCCC(=O)Nc2ccccc2Br)cc1		inconclusive: 15.8 µM [falling, partial curve, poor fit]
COc1ccc(-c2nncnn2)cc1	inconclusive: -20.1%	
CCOC(=O)NC(NC(=S)Nc1ccccc1OC)C(Cl)(Cl)Cl (configuration not stated)	inactive: 7.28%	
Cc1occc1C(=O)N1CCCC(CO)(Cc2ccc(F)cc2F)C1 (configuration not stated)	inactive: 0.176%	
CCOC(=O)c1nc(-c2ccc3c(c2)OCO3)[nH]c1C	inconclusive: -17.1%	
Fc1ccc(/C=N/n2c(-c3cccs3)n[nH]c2=S)cc1	inconclusive: 12.1%	
O=[N+]([O-])c1ccc(CSc2ccccn2)cc1	inconclusive: 2.66%	
COc1cc(S(C)=O)ccc1-c1nc2ncccc2[nH]1 (configuration not stated)	inconclusive: 3.13%	
COc1ccc(-c2nnc(SCC(=O)Nc3cccc(Cl)c3)o2)cc1	inactive: 3.58%	
CN(c1ccc(OCC(=O)OCc2nnc(-c3ccccc3)o2)cc1)S(=O)(=O)c1ccc(Cl)cc1	inconclusive: 6.93%	
O=C(CSc1nc2ccccc2s1)N1c2ccccc2Sc2ccccc21	inconclusive: 24.3%	
CCN1CCc2c(C#N)c(NCc3ccccc3)nc(N(CC)CC)c2C1	inactive: -1.7%	
COc1ccc(C2C(=O)N(C3CCCCC3)CC(=O)N2C2CCCCC2)cc1 (configuration not stated)	inconclusive: -26.7%	
O=C(Nc1cccc(NC(=O)c2sc3ccccc3c2Cl)c1)c1ccco1	inconclusive: -28%	
O=C(Nc1ccc(F)cc1)c1nc[nH]c1C(=O)Nc1ccc([N+](=O)[O-])cc1	inactive: 0.0608%	
O=S(=O)(Nc1ccc(-c2nnc(SCc3ccc(Cl)cc3)o2)cc1)c1ccccc1	inconclusive: 12%	
O=S(=O)(Nc1ccc(Cl)c(Cl)c1)N1CCOCC1	inconclusive: 4.82%	
CCOc1ccc(NC(=O)CN(C)C(=O)c2ccccc2OCc2cccc(C)c2)cc1OCC	inconclusive: -25.5%	
Cc1ccc2cc(C(c3nnnn3C3CCCC3)N(Cc3ccco3)Cc3cccs3)c(=O)[nH]c2c1 (configuration not stated)		inconclusive: 32.6 µM [rising, single point]
COc1cc(NC(=O)C/C(C)=N/NC(=O)c2ccccn2)c(OC)cc1Cl		inconclusive: 31.6 µM [falling, single point]

Structure (SMILES)	activity change, negative = inhibition	Potency
Cc1cccc(NC(=O)C2CCN(S(=O)(=O)c3ccc4ccccc4c3)CC2)n1	inconclusive: 15.5%	
O=C(N/N=C\c1ccc(OC(=O)c2cccs2)cc1)c1ccc(Cl)cc1	inconclusive: -11.8%	
Cc1ccnc(NC(=O)Nc2ccc(F)cc2)c1		inconclusive: 15.8 µM [falling, single point]
CC1CCN(c2nc(-c3ccc(Br)cc3)nc3ccccc23)CC1	inconclusive: -0.632%	
Nc1[nH]n2c(=O)c3c(nc2c1N=Nc1ccccc1)CCCC3		inconclusive: 12.6 µM [falling, partial curve]
COC(=O)c1sccc1NC(=O)NC1CCCCC1		inconclusive: 15.8 µM [falling, partial curve]
Cc1ccc2cc(CN(Cc3ccco3)C(=O)c3cccs3)c(=O)[nH]c2c1		inconclusive: 29.1 µM [falling, single point]
CCOc1ccc(-c2nc(C#N)c(N3CCOCC3)o2)cc1	inconclusive: -3.13%	
Cn1cccc1/C=C1\SC(=Nc2ccc(O)cc2)NC1=O	inconclusive: 205% [cytotoxic]	
COc1cc(/C=C(\C#N)C(=O)NCc2ccccc2)ccc1OCc1ccc(C(=O)O)cc1		inconclusive: 17.8 µM [falling, partial curve]
COc1cc(CNCCO)cc(Br)c1OCc1ccccc1	inconclusive: 0.384%	
Cc1c(/C=N\NC(=O)c2cccc(F)c2)cnn1C		inconclusive: 23.1 µM [falling, partial curve, poor fit]
CCOc1ccc(CCNC(=O)CCc2nnc3ccc(N4CCOCC4)nn23)cc1OCC	inconclusive: -4.18%	
COc1ccc(CNC(=O)c2cc(-c3ccc(OC)c(OC)c3)on2)cc1	inconclusive: -12.2%	
O=c1[nH]c2ccccc2cc1CN(CC1CCCO1)S(=O)(=O)c1ccccc1 (configuration not stated)		inconclusive: 10 µM [falling, partial curve, poor fit]
O=C(Nc1ccc(-c2nc3ccccc3o2)cc1)C1CCCO1 (configuration not stated)		inconclusive: 14.6 µM [falling, partial curve]
COc1ccccc1NC(=O)c1ccc(-c2ccccc2[N+](=O)[O-])o1	inconclusive: -20.5%	
CCOCc1cc(=O)[nH]c(SC)n1	inactive: -6.63%	
Cc1ccc(C(=O)N2CCC(C(=O)NCc3cccnc3)CC2)cc1		inconclusive: 32.6 µM [rising, partial curve, poor fit]
Cc1ccc(Nc2nc(Cl)nc(NC3CCCCC3)n2)cc1	inconclusive: 2.48%	
CN(C)c1ccc(C(=O)NCc2ccc3c(c2)CCN3C(=O)c2ccccc2)cc1	inactive: 4.31%	

In a second layout: results already given.
COc1ccccc1NC(=O)c1ccc(-c2ccccc2[N+](=O)[O-])o1
  activity change, negative = inhibition: inconclusive: -20.5%
CCOCc1cc(=O)[nH]c(SC)n1
  activity change, negative = inhibition: inactive: -6.63%

The results go on:

Structure (SMILES)	activity change, negative = inhibition	Potency
CCOC(=O)c1[nH]c2ccc(C)cc2c1N		inconclusive: 20.6 µM [falling, single point]
CC(=O)Nc1ccc(S(=O)(=O)NC(CSc2ccc(C(=O)O)cc2[N+](=O)[O-])C(=O)O)cc1 (configuration not stated)	inactive: 16.2%	
CCc1ccc(NC(=O)CSc2ccccn2)cc1	inconclusive: 9.6%	
COc1ccc(-c2nnn(CC(=O)c3c[nH]c4ccccc34)n2)cc1OC	inconclusive: -22.2%	
CCN(CC)C(=O)c1[nH]cnc1C(=O)NC1CCN(C(=O)OC(C)(C)C)CC1	inactive: -0.355%	
CCCC(=O)NC(NC1CCS(=O)(=O)C1)C(Cl)(Cl)Cl (configuration not stated)	inconclusive: 7.09%	
Cc1cnc(NC(=O)/C=C/c2ccc(Br)o2)s1	inconclusive: -0.807%	
Cc1ccc(C)c(Nc2nn3c(=O)c4ccc(C(=O)NCc5cccs5)cc4nc3s2)c1	inactive: -15.1%	
COc1ccc(-c2csc3ncnc(Cl)c23)cc1	inconclusive: 4.36%	
CCc1ccc(C(C(=O)NCc2ccc(F)cc2)N(C(=O)c2csnn2)C2CC2)cc1 (configuration not stated)	inactive: 1.6%	
COCCn1c(SCC(=O)N2CCCCCC2)nc2c(c1=O)SCC2	inconclusive: -4.59%	
COc1cccc(/C=N/Nc2ncc(C(F)(F)F)cc2Cl)c1O		inconclusive: 0.231 µM [falling, partial curve, poor fit]
O=S(=O)(c1cccc2nsnc12)N1CCCC1		inconclusive: 11.2 µM [falling, single point]
Cc1ccccc1Nc1nnc(SCc2cc(=O)n3ccsc3n2)s1		inconclusive: 11.2 µM [falling, partial curve, poor fit]
Cc1ccc(/C=N/NC(=O)C2COc3ccccc3O2)s1 (configuration not stated)	inconclusive: -9.39%	
Nc1nc2c(ncn2[C@H]2C[C@H](O)[C@@H](CO)O2)c(=O)[nH]1	inactive: -11.9%	
Cc1ccc(S(=O)(=O)/N=C(\N)Nc2nc(C)c3cc(C)ccc3n2)cc1		inconclusive: 25.1 µM [falling, single point]
O=C(CCC(=O)N1CCOc2ccccc21)NCCCN1CCN(Cc2ccccc2)CC1		inconclusive: 20 µM [falling, single point]
CC(C(=O)N1CCCc2ccccc21)N1CCN(c2ccccn2)CC1 (configuration not stated)	inactive: 0.116%	

Reprinted at random: 2 records from the list, in no set order.
Structure (SMILES)	activity change, negative = inhibition	Potency
CCN(CC)C(=O)c1[nH]cnc1C(=O)NC1CCN(C(=O)OC(C)(C)C)CC1	inactive: -0.355%	
CC(=O)Nc1ccc(S(=O)(=O)NC(CSc2ccc(C(=O)O)cc2[N+](=O)[O-])C(=O)O)cc1 (configuration not stated)	inactive: 16.2%	
